Experimental findings from patent publication US20220175920A1 are described below.

For this assay, the target named is cohesin-human CD40 ectodomain protein (P3398) (human). The experiment in a line: SPR.

These are yes or no findings as the source states them, for the method shown. A result given as binding can be weak or reduced; the word gives no strength.

B1: anti-CD40 12B4 human IgG4 antibody (antibody, V domains shown)
VH: EVQLQQSGPELVKPGASVKMSCKASGYTFTDYVLHWVKQKPGQGLEWIGYINPYNDGTKYNEKFKGKATLTSDKSSSTAYMELSSLTSEDSAVYYCARGYPAYSGYAMDYWGQGTSVTVSS
VL: DIQMTQTTSSLSASLGDRVTISCRASQDISNYLNWYQQKPDGTVKLLIYYTSRLHSGVPSRFSGSGSGTDYSLTISNLEQEDIATYFCHHGNTLPWTFGGGTK
Regarding B1, the binding result was “binds”.

B2: anti-CD40 24A3 human IgG4 antibody (antibody, V domains shown)
VH: DVQLQESGPDLVKPSQSLSLTCTVTGYSITSDYSWHWIRQFPGNKLEWMGYIYYSGSTNYNPSLKSRISITRDTSKNQFFLQLNSVTTEDSATYFCARFYYGYSFFDYWGQGTTLTVSS
VL: QIVLTQSPAFMSASPGEKVTMTCSASSSVSYMHWYQQKSGTSPKRWIYDTSKLASGVPARFSGSGSGTSYSLTISSMEAEDAATYYCQQWSSNPLTFGAGTK
Take B2: the binding entry is “binds”.
